Source: patent publication US4721704A, “Potent synthetic atrial peptide analogs” (Peninsula Laboratories, Inc., priority 1986, dated 1988)
Part of at least one peptide drawing is inferred or uncertain, most often the ends. Bridge positions count the residues as written; N and C are the ends. Peptide text beside a SMILES is read from it.

Legend:
[1] = test system: rat lung tissue; experiment: Cyclic GMP assay in rat lung tissue (radioimmunoassay); assay type: cell-based; conditions: 10^-7 M, 37° C., 10 min
[2] = Atriopeptin III and α-hANP compared with each other; cited from earlier work

For CC[C@H](C)[C@@H]1NC(=O)[C@H](CCCNC(=N)N)NC(=O)[C@H](CC(=O)O)NC(=O)[C@H]([C@@H](C)CC)NC(=O)[C@H](CCCNC(=N)N)NC(=O)CNC(=O)CNC(=O)[C@H](Cc2ccccc2)NC(=O)[C@@H](NC(=O)[C@H](CO)NC(=O)[C@@H](N)CO)CSSC[C@@H](C(=O)N[C@@H](CC(N)=O)C(=O)N[C@@H](CO)C(=O)N[C@@H](Cc2ccccc2)C(=O)N[C@@H](CCCNC(=N)N)C(=O)N[C@@H](Cc2ccc(O)cc2)C(=O)O)NC(=O)CNC(=O)[C@H](CC(C)C)NC(=O)CNC(=O)[C@H](CO)NC(=O)[C@H](CCC(N)=O)NC(=O)[C@H](C)NC(=O)CNC1=O [Atriopeptin III, reference compound] (H-SSCFGGRIDRIGAQSGLGCNSFRY-OH; disulfide 3-19), the “increase of cyclic GMP content” value [1] is given as “about 2.1 fold” and the “hypotensive, diuretic and natriuretic activities” value [2] is given as “about comparable”.
